The source of these data is article PMC3062617.

This assay has as its target GST-dMP1 fusion protein (Drosophila). Briefly: pull-down; GST-dMP1 fusion protein on beads, in vitro translated 35S-Corto, autoradiography; GST beads as control; only the target purified.

These are yes or no findings as the source states them, for the method shown. In cells and extracts the contact can be indirect.

B1: in vitro translated 35S-Corto (protein, UniProt P41046 1-550)
chain: MTMAACYANYDMSSLSHGMSALSALQQQQQQQQQQHSQTQQQHHHQQQQQHMYHAAVAAHQQQLLQQQQQQQHHRHHHQPANTSSSSNSRHSHAAATQTQVAAAVANSRQQQQQQQQQQQQQQQQQTASSNSNAAPAPSPQKDYSIPLHVDCSVEYELPNQPKPPAGQRVEPLLMIHPCYFRKMESQRRSPFVNNMHATARAVSSSSLSSGAALGGGGSGAAVATAPSSSAARRGARAATSAQQQQQQQQRYQQQQQQLRQQHQQMSQMSQQAHYPQQQSSLVRQHQQQQQQQQQQQRASSNQSQRQSQSQSQSQSHAANSAAAAAAQASIAAAAAGQWDQLAALAARTALTPHHMLHPHSHYAAKGSGGGAGGGKRDAMISGSYGQTAVASGKLQQSQVQQQQPQQQQQHCLPPPPWDATSMLMDRSPMATVPSNYQAGPDTNPMRLYSATPTAGAASGGSASVGGGGAVSGAGATGAVNTATDKLSGKYRQYLRSQRMHPYAAAASLNLAAAAAAAGQTSFVPFSSAATAVAATPTFQHLPQISCYNV
modifications: 35S label
For the molecule B1, the binding result is reported as “no binding”.
